Measured values taken from publication doi:10.1101/2022.04.07.487541.

What was measured:
[1] = biological target: Voltage-Dependent Anion Channel (VDAC) isolated from rat liver mitochondria (rat); assay: single-channel electrophysiology, open-channel current noise
[2] = biological target: Voltage-Dependent Anion Channel (VDAC) isolated from rat liver mitochondria (rat); assay: as above; remark: listed apart in the source

MIASHLLAYFFTELN [HK2p, the 15 amino acid N-terminal peptide of human hexokinase-2]
binding [1]: binds
binding [2]: binds

Like-named read-outs stand apart in the source and are kept apart here. Results are given in words; binding and its absence hold for the method and conditions named. Binding calls can cover weak binding; strength is not graded here.
